This is an account of results in PMC7264094.

Sequences of proteins named here, by UniProt entry; tags and fusion partners are left off. Residues count along the entry.
UniProt O35375, residues 21-931: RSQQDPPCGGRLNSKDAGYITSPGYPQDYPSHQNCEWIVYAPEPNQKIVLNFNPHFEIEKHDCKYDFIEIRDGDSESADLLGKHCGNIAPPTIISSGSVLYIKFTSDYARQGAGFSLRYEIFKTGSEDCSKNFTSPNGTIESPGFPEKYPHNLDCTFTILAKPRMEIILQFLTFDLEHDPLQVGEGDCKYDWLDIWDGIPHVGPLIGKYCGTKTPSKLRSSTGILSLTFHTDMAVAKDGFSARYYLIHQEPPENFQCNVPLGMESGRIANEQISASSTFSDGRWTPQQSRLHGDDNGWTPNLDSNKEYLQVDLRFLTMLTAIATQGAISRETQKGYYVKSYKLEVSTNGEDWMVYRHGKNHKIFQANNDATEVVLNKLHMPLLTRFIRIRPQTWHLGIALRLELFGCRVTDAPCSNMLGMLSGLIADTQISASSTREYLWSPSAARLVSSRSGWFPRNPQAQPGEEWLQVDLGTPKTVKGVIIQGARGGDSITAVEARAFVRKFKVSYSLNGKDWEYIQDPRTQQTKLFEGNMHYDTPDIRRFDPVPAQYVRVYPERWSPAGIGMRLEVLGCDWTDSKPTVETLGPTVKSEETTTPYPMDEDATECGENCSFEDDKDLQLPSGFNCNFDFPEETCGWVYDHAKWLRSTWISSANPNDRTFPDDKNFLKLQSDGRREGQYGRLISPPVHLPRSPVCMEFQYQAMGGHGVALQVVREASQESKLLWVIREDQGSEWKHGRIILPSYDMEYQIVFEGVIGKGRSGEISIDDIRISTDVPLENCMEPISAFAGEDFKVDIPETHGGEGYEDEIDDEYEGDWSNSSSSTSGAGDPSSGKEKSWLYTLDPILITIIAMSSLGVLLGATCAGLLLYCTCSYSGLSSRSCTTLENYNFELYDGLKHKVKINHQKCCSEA

This assay has as its target Neuropilin-2 (NRP2) (mouse (endogenous in mLMECs)) (UniProt O35375). The experiment in a line: co-IP; lysates of control or NRP2 siRNA-transfected mLMECs grown 48 h on fibronectin; 100 μg protein incubated overnight at 4°C with protein-G Dynabeads coupled to an antibody (anti-NRP2; in the reverse direction anti-ITGA5 or anti-Rab11); Western blot.

Results are given in words; binding and its absence hold for the method and conditions named. In cells and extracts the contact can be indirect. Some binding calls cover weakened binding; strength is not graded here.

B1: caveolin-1 (protein, UniProt P49817 1-178)
chain: MSGGKYVDSEGHLYTVPIREQGNIYKPNNKAMADEVTEKQVYDAHTKEIDLVNRDPKHLNDDVVKIDFEDVIAEPEGTHSFDGIWKASFTTFTVTKYWFYRLLSTIFGIPMALIWGIYFAILSFLHIWAVVPCIKSFLIEIQCISRVYSIYVHTFCDPLFEAIGKIFSNIRISTQKEI
As to B1, the binding result is on record as “binds”.
